Results are given in words; binding and its absence hold for the method and conditions named. Binding seen in cells or lysates may run through a third protein. A result given as binding can be weak or reduced; the word gives no strength.

The target of the assay is HA::Rab11. Nature of the assay: co-IP.

B1: IER3IP1 (in HCT116 or HEK293 cells) (protein, UniProt Q9Y5U9 1-82)
chain: MAFTLYSLLQAALLCVNAIAVLHEERFLKNIGWGTDQGIGGFGEEPGIKSQLMNLIRSVRTVMRVPLIIVNSIAIVLLLLFG
On to B1, for which the binding result is on record as “binds”.

The values are drawn from article doi:10.1101/2024.07.20.604396.
